# Data reported in article PMC9539280 (Advanced Science, 2022).
# Test system: hCMs
# Assay: RNA-seq transcriptome analysis of drug-treated hCMs
# Assay type: cell-based, human
# Conditions: compared to apilimod and remdesivir
row,SMILES,alteration of the transcriptome of hCMs
1,"Cc1cccc(C)c1OCC(=O)N[C@@H](Cc1ccccc1)[C@@H](O)C[C@H](Cc1ccccc1)NC(=O)[C@H](C(C)C)N1CCCNC1=O [Lopinavir, lopinavir]",minimally altered the transcriptome
2,"CC(C)c1nc(CN(C)C(=O)N[C@H](C(=O)N[C@@H](Cc2ccccc2)C[C@H](O)[C@H](Cc2ccccc2)NC(=O)OCc2cncs2)C(C)C)cs1 [Ritonavir, ritonavir]",minimally altered the transcriptome
